Experimental data reported in PMC7898450.
Where a chain is given by its changes, count along the chain named. Results are given in words; binding and its absence hold for the method and conditions named. In cells and extracts the contact can be indirect. Some binding calls cover weakened binding; strength is not graded here. Tags and fused reporters may be left off the sequences shown.

The chains behind the UniProt entries cited, without tags or fusion partners.
UniProt Q14247: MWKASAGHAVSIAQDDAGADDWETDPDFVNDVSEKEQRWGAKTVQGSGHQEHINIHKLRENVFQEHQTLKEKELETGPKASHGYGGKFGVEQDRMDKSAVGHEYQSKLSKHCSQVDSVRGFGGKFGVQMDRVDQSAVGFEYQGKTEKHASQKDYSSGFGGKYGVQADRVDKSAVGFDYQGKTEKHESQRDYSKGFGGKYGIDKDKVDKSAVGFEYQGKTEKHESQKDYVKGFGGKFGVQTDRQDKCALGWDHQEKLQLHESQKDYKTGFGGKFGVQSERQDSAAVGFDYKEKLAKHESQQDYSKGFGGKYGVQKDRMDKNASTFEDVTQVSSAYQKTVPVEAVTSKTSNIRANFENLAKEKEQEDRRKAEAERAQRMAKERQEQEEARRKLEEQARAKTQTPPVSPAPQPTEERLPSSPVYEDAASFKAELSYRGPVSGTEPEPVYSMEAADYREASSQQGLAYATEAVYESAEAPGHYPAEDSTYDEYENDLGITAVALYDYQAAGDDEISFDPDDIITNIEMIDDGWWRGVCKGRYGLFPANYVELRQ

Key:
Experiment in all cases: co-IP; GFP-nanotrap beads on whole-cell lysates of transfected HEK 293T cells (GFP-fused L-plastin constructs as bait), 2 h at 4 °C, 150 mM NaCl, 0.5 mM EDTA, pH 7.5; cells treated with or without 0.1 µM PMA for 1 h; endogenous cortactin detected by immunoblot
L-plastinWT-GFP = target: T1, L-plastinWT-GFP (UniProt P13796)
T1 sequence: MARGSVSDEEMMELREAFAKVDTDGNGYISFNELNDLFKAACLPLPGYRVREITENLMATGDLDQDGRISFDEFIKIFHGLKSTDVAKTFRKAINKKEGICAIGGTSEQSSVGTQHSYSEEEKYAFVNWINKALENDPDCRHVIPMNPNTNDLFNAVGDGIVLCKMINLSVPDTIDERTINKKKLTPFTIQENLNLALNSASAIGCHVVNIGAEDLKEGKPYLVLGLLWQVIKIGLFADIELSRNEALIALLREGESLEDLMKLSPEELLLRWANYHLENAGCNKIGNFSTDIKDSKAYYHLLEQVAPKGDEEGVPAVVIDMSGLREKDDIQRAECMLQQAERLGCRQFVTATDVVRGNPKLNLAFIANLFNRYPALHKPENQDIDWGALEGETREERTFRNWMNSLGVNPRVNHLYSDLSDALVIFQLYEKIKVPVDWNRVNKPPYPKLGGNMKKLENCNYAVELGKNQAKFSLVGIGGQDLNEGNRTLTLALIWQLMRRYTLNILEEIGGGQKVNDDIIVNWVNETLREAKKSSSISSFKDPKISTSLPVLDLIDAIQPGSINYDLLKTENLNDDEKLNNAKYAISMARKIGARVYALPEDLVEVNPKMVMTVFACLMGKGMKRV

L-plastinS5A-GFP = target: T2, L-plastinS5A-GFP (UniProt P13796)
T2 sequence: T1 sequence with S5A

L-plastinS5E-GFP = target: T3, L-plastinS5E-GFP (UniProt P13796)
T3 sequence: T1 sequence with S5E

Measured: binding

cortactin (from UniProt Q14247 1-550)
binds: all assays above
